Sequences of proteins named here, by UniProt entry; tags and fusion partners are left off. Residues count along the entry.
UniProt O00763, 129-2458 limits assumed: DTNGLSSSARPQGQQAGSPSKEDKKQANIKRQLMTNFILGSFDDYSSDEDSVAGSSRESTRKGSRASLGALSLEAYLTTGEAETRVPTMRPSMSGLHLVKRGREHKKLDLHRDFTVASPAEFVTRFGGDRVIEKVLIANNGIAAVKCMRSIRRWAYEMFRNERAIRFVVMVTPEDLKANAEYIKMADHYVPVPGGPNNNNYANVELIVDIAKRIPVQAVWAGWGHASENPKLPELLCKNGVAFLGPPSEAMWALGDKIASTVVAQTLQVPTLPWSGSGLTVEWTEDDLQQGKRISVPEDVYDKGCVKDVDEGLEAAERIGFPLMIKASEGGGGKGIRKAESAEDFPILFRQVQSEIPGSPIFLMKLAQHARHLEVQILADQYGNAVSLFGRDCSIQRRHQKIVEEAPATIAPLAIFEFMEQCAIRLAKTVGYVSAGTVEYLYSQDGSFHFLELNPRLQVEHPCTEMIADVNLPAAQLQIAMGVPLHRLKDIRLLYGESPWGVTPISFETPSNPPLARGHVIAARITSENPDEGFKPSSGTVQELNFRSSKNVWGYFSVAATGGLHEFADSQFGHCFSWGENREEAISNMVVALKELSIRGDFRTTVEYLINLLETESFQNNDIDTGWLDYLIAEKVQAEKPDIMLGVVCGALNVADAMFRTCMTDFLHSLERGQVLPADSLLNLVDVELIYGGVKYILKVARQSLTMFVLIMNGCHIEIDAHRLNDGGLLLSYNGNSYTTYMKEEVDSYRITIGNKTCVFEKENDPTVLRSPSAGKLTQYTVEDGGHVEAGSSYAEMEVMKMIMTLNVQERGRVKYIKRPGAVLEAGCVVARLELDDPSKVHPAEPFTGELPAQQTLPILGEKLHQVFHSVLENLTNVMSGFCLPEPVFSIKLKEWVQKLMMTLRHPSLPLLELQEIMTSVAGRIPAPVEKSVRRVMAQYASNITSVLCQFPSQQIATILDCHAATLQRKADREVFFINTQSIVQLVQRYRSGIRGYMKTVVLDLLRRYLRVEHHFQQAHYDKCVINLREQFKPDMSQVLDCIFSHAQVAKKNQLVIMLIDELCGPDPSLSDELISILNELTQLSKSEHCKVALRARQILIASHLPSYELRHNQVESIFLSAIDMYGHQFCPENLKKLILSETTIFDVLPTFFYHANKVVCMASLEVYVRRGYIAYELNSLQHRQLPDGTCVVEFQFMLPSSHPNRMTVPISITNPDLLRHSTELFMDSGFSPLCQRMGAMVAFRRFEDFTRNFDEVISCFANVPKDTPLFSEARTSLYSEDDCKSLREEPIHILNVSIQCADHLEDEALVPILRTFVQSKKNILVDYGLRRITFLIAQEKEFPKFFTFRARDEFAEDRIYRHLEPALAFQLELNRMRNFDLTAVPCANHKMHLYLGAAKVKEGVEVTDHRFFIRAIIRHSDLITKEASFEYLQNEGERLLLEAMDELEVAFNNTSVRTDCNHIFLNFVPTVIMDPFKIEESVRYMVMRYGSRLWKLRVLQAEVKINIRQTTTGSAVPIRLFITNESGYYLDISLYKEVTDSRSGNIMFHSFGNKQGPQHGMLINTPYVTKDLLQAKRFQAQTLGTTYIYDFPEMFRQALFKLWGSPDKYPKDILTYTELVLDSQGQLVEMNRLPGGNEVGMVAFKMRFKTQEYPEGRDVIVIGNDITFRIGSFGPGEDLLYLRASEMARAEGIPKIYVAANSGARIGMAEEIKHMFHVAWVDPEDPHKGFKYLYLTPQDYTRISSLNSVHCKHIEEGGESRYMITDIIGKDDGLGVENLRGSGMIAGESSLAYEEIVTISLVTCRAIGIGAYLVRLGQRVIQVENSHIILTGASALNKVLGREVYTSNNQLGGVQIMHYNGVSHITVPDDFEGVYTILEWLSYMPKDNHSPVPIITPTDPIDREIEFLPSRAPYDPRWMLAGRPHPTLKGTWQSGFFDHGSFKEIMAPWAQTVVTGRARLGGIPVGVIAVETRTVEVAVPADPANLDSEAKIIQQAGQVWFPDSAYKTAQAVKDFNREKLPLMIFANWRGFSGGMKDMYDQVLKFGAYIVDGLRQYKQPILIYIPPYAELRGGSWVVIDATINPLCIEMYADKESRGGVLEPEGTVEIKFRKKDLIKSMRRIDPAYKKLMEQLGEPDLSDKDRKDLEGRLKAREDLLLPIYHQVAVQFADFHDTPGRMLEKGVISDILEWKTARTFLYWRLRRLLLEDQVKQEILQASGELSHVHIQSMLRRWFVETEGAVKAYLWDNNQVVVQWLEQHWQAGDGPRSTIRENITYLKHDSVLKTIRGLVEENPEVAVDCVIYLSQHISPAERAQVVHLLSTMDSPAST

According to patent publication US9006450B2 (Boehringer Ingelheim International GmbH, priority 2010, dated 2015):

Biological target: human ACC2 (Homo sapiens, UniProt O00763)
Test: ACC2 assay, spectrophotometric 384 well assay (NADH-linked, coupled lactate dehydrogenase/pyruvate kinase)
Conditions: hACC2 construct lacking 128 N-terminal amino acids, 25° C., 340 nm
Description: Spectrophotometric 384 Well Assay
Malonyl CoA formation by acetyl CoA carboxylases is stoichometrically linked to the consumption of ATP. ACC2 activity is measured in a NADH-linked kinetic method measuring ADP generated during the ACC reaction using a coupled lactate dehydrogenase/pyruvate kinase reaction.
For biological testing, a human ACC2 construct which lacks the 128 amino acids at the N-terminus for increased solubility (nt 385-6966 in Genbank entry AJ575592) is cloned. The protein is then expressed in insect cells using a baculoviral expression system. Protein purification is performed by anion exchange.
All compounds are dissolved in dimethyl sulfoxide (DMSO) to a concentration of 10 mM.
Assay reactions are then carried out in 384-well plates, with hACC2 in an appropriate dilution and at final assay concentrations (f.c.) of 100 mM Tris (pH 7.5), 10 mM trisodium citrate, 25 mM KHCO3, 10 mM MgCl2, 0.5 mg/mL BSA, 3.75 mM reduced L-glutathione, 15 U/mL lactate dehydrogenase, 0.5 mM phosphoenolpyruvate, 15 U/mL pyruvate kinase, compounds at different concentrations at final DMSO concentrations of 1%.
The enzymatic reaction is then started by addition of a mixture of NADH, acetyl Coenzyme A (both 200 μM f.c.) and ATP (500 uM f.c.). The decrease of the optical density (slope S) is then determined at 25° C. at a wavelength of 340 nm over 15 minutes in a spectrophotometric reader.
Each assay microtiter plate contains wells with vehicle instead of compound as controls for the non-inhibited enzyme (100% CTL; ‘HIGH’) and wells without acetyl-CoA as controls for non-specific NADH degradation (0% CTL; ‘LOW’).
The slope S is used for calculation of % CTL=(S(compound)−S('LOW'))/(S('HIGH')−S('LOW'))*100. Compounds will give values between 100% CTL (no inhibition) and 0% CTL (complete inhibition).
For IC50 value determination, the sample slope in the presence of the test compound after subtraction of the low controls (S(compound)−S('LOW')) are used.
An IC50 value is derived from the compound slopes at different dosages after subtraction of the low controls (S(compound)−S('LOW')) by non-linear regression curve fitting (equation y=(A+((B−A)/(1+((C/x)^D))))).

SMILES | IC50 [nM]
COc1ncc(N2CCC(c3ccc([C@H](C)NC(C)=O)cc3)CC2)c(OC)n1 | 1200
CC(=O)N[C@@H](C)c1ccc(C2CCN(c3ccc(OCC4CC4)cc3)CC2)cc1 | 90
CC(=O)NC(C)Cc1ccc(C2CCN(c3ccc(OCC4CC4)cc3F)CC2)cc1 (stereo not shown) | 920
CCCOc1ccc(N2CCC(c3ccc(CC(C)NC(C)=O)cc3)CC2)c(OC)c1 (stereo not shown) | 830

Structures were worked out from names or drawings and are uncertain.
